The list is a part of this screen's results and no random one: it gathers tests that were run many times, whatever their T/C, doses with no T/C, and many T/C values between a quarter and a half above the control. Further doses and runs are listed elsewhere. T/C: endpoint of the treated group in % of that of the vehicle group. Some doses have a count of surviving animals in place of a T/C: the source files T/C as zero there, which appears to mark a toxic dose or a test without result, not a measured value. Some doses without a T/C left all or most animals alive at the check, yet need not have been tolerated: the source hardly ever lists a survival T/C far under the control, and the zero likely stands for such cases as well. Survivors were counted at the toxicity check, usually on the fifth day, unless a day is given; later deaths do not show. Schedules are NCI's codes, read here as Q, the interval in days (D) or hours (H), X, the number of doses. Some entries hold several experiments; their values stand side by side, smallest first. For survival time, this PubChem deposit counts one and a half times the control or more as active, and values a quarter to a half above the control carry no call in these data; other NCI protocols may use other cut-offs. Some T/C values are followed by the survivors on the day toxicity was checked, most often the fifth; where none is given, no animal had died by that day.
Test system: BDF1 mice, B16 melanoma ip, median survival T/C
Assay: NCI In Vivo Anticancer Drug Screen. Data for tumor model B16 Melanoma (intraperitoneal) in B6D2F1 (BDF1) mice
Details: T/C endpoint: median survival time, higher T/C = longer survival
Procedure, shortened: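 Transplantable tumor model; survival or tumor size measured; reported as T/C, treated over vehicle control.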

[1] = dose: 12.5 mg/kg/injection, schedule: Q01DX009 (ip), vehicle: Klucel (hydroxypropylcellulose) (HPC)
[2] = dose: 25.0 mg/kg/injection, schedule: Q01DX009 (ip), vehicle: Klucel (hydroxypropylcellulose) (HPC)

In the case of `CCC1(O)CC2CN(CCc3c([nH]c4ccccc34)C(C(=O)OC)(c3cc4c(cc3OC)N(C)C3C(O)(C(N)=O)C(O)C5(CC)C=CCN6CCC43C65)C2)C1` (stereo unspecified) (tested in a mixture with another compound), the T/C (dose: 0.07 mg/kg/injection, schedule: Q04DX003 (ip), vehicle: saline) was 149 % of control, the T/C (dose: 0.11 mg/kg/injection, schedule: Q04DX003 (ip), vehicle: saline) was 147 % of control [9 of 10 alive] and the T/C (dose: 0.13 mg/kg/injection, schedule: Q01DX009 (ip), vehicle: water) was 131 % of control [9 of 10 alive]. For the same molecule, the T/C (dose: 0.22 mg/kg/injection, schedule: Q01DX009 (ip), vehicle: water) was 139 % of control, the T/C (dose: 0.52 mg/kg/injection, schedule: Q04DX003 (ip), vehicle: water) was 142 % of control and the survivor count (dose: 0.6 mg/kg/injection, schedule: Q01DX009 (ip), vehicle: water) was 10 of 10. For the same molecule, the survivor count (dose: 1.0 mg/kg/injection, schedule: Q01DX009 (ip), vehicle: water) was 5 of 10 and 9 of 10, the T/C (dose: 1.0 mg/kg/injection, schedule: Q04DX003 (ip), vehicle: saline) was 129 % of control and the T/C (dose: 1.0 mg/kg/injection, schedule: Q04DX003 (ip), vehicle: water) was 138 % of control. The T/C (dose: 1.04 mg/kg/injection, schedule: Q01DX001 (ip), vehicle: water) was 145 % of control, the T/C (dose: 1.67 mg/kg/injection, schedule: Q04DX003 (ip), vehicle: saline) was 125 % of control and the T/C (dose: 1.73 mg/kg/injection, schedule: Q01DX001 (ip), vehicle: water) was 142 % of control. For the same molecule, the T/C (dose: 2.0 mg/kg/injection, schedule: Q04DX003 (ip), vehicle: water) was 145 % of control, the survivor count (dose: 2.4 mg/kg/injection, schedule: Q04DX003 (ip), vehicle: water) was 10 of 10 and the survivor count (dose: 2.78 mg/kg/injection, schedule: Q04DX003 (ip), vehicle: saline) was 9 of 10. The T/C (dose: 2.9 mg/kg/injection, schedule: Q01DX001 (ip), vehicle: water) was 147 % of control, the survivor count (dose: 3.0 mg/kg/injection, schedule: Q04DX003 (ip), vehicle: saline) was 4 of 10 and the survivor count (dose: 4.0 mg/kg/injection, schedule: Q04DX003 (ip), vehicle: water) was 2 of 10 and 10 of 10. For the same molecule, the survivor count (dose: 4.63 mg/kg/injection, schedule: Q04DX003 (ip), vehicle: saline) was 9 of 10, the T/C (dose: 8.0 mg/kg/injection, schedule: Q01DX001 (ip), vehicle: water) was 147 % of control and the T/C (dose: 22.0 micrograms/kg/injection, schedule: Q01DX009 (ip), vehicle: saline) was 129 % of control. For the same molecule, the T/C (dose: 36.0 micrograms/kg/injection, schedule: Q01DX009 (ip), vehicle: saline) was 142 % of control, the T/C (dose: 130.0 micrograms/kg/injection, schedule: Q01DX009 (ip), vehicle: saline) was 143 % of control [9 of 10 alive] and the T/C (dose: 130.0 micrograms/kg/injection, schedule: Q01DX009 (ip), vehicle: water) was 135 % of control. For the same molecule, the T/C (dose: 360.0 micrograms/kg/injection, schedule: Q01DX009 (ip), vehicle: water) was 145 % of control, the T/C (dose: 389.0 micrograms/kg/injection, schedule: Q04DX003 (ip), vehicle: saline) was 136 % of control and the T/C (dose: 600.0 micrograms/kg/injection, schedule: Q01DX009 (ip), vehicle: water) was 140 % of control. The T/C (dose: 648.0 micrograms/kg/injection, schedule: Q04DX003 (ip), vehicle: saline) was 142 % of control, the survivor count (dose: 1000.0 micrograms/kg/injection, schedule: Q01DX009 (ip), vehicle: saline) was 8 of 10 and the survivor count (dose: 1000.0 micrograms/kg/injection, schedule: Q01DX009 (ip), vehicle: water) was 10 of 10.
With `CC[CH2][Pb]([CH2]CC)([CH2]CC)[N]1C(=O)c2ccccc2C1=O` the survivor count [1] was 10 of 10 and the survivor count [2] was 2 of 10.
`COc1cccc2c1C(=O)c1c(O)c3c(c(O)c1C2=O)C[C@@](O)(C(C)=O)C[C@@H]3OC1CC(N(C)C)C(O)C(C)O1` (stereo partly specified) was tested, and the T/C (dose: 2.5 mg/kg/injection, schedule: Q01DX001 (ip), vehicle: water) was 128 % of control, the T/C (dose: 5.0 mg/kg/injection, schedule: Q01DX001 (ip), vehicle: water, evaluated on day 50) was 103 % of control and the T/C (dose: 5.0 mg/kg/injection, schedule: Q01DX001 (ip), vehicle: water, evaluated on day 60) was 122, 124, 170 % of control [9 of 10 alive]. For the same molecule, the T/C (dose: 9.6 mg/kg/injection, schedule: Q04DX003 (ip), vehicle: water) was 147 % of control, the T/C (dose: 10.0 mg/kg/injection, schedule: Q01DX001 (ip), vehicle: water, evaluated on day 50) was 121 % of control and the T/C (dose: 10.0 mg/kg/injection, schedule: Q01DX001 (ip), vehicle: water, evaluated on day 60) was 117, 128, 134 % of control. For the same molecule, the survivor count (dose: 16.0 mg/kg/injection, schedule: Q04DX003 (ip), vehicle: water) was 10 of 10, the T/C (dose: 20.0 mg/kg/injection, schedule: Q01DX001 (ip), vehicle: water, evaluated on day 50) was 131 % of control and the T/C (dose: 20.0 mg/kg/injection, schedule: Q01DX001 (ip), vehicle: water, evaluated on day 60) was 127 % of control [9 of 10 alive]. For the same molecule, the T/C (dose: 20.0 mg/kg/injection, schedule: Q01DX001 (ip), vehicle: water, evaluated on day 75) was 103 % of control, the survivor count (dose: 20.0 mg/kg/injection, schedule: Q01DX001 (ip), vehicle: water) was 8 of 10, 9 of 10, 10 of 10 and the survivor count (dose: 33.3 mg/kg/injection, schedule: Q01DX001 (ip), vehicle: water) was 6 of 10 and 10 of 10. For the same molecule, the survivor count (dose: 40.0 mg/kg/injection, schedule: Q01DX001 (ip), vehicle: water) was 3 of 10 and 10 of 10 and the survivor count (dose: 80.0 mg/kg/injection, schedule: Q01DX001 (ip), vehicle: water) was 0 of 10 and 2 of 10.
With `O=C(CN1C(=O)c2ccccc2C1=O)OC(c1ccccc1)c1ccccc1` the survivor count (dose: 200.0 mg/kg/injection, schedule: Q01DX009 (ip), vehicle: Klucel (hydroxypropylcellulose) (HPC)) was 9 of 10.
In the case of `Clc1ccccc1N1CCN(CCCN2CCN(c3ccccc3Cl)CC2)CC1`, the survivor count (dose: 25.0 mg/kg/injection, schedule: Q01DX009 (ip), vehicle: saline with Tween-80) was 10 of 10, the survivor count (dose: 50.0 mg/kg/injection, schedule: Q01DX009 (ip), vehicle: saline with Tween-80) was 10 of 10 and the survivor count (dose: 100.0 mg/kg/injection, schedule: Q01DX009 (ip), vehicle: saline with Tween-80) was 10 of 10.
In the case of `O=C(Nc1ccc2c(c1)OCO2)O/N=C1\C(=O)Nc2ccccc21`, the T/C (dose: 50.0 mg/kg/injection, schedule: Q04DX003 (ip), vehicle: saline) was 138 % of control and the T/C (dose: 100.0 mg/kg/injection, schedule: Q04DX003 (ip), vehicle: saline) was 148 % of control.
For `CC(Br)C1(c2cccc([N+](=O)[O-])c2)OCCO1` (stereo unspecified), the survivor count (dose: 100.0 mg/kg/injection, schedule: Q04DX003 (ip), vehicle: Klucel (hydroxypropylcellulose) (HPC)) was 5 of 10 and 7 of 10, the survivor count (dose: 200.0 mg/kg/injection, schedule: Q04DX003 (ip), vehicle: Klucel (hydroxypropylcellulose) (HPC)) was 7 of 10 and the survivor count (dose: 400.0 mg/kg/injection, schedule: Q04DX003 (ip), vehicle: Klucel (hydroxypropylcellulose) (HPC)) was 0 of 10.
`CC[C@@]1(O)C[C@H](OC2CC(N(C)C)C(O)C(C)O2)c2c(O)c3c(c(O)c2[C@H]1OC1CC(N(C)C)C(O)C(C)O1)C(=O)c1cccc(O)c1C3=O` (stereo partly specified) was tested, and the survivor count (dose: 125.0 micrograms/kg/injection, schedule: Q01DX009 (ip), vehicle: Klucel (hydroxypropylcellulose) (HPC)) was 10 of 10 and the survivor count (dose: 250.0 micrograms/kg/injection, schedule: Q01DX009 (ip), vehicle: Klucel (hydroxypropylcellulose) (HPC)) was 10 of 10.
In the case of `O=C(NNCc1ccccc1)c1ccccn1`, the survivor count (dose: 6.25 mg/kg/injection, schedule: Q01DX009 (ip), vehicle: Klucel (hydroxypropylcellulose) (HPC)) was 10 of 10, the survivor count [1] was 10 of 10 and the survivor count [2] was 10 of 10. The survivor count (dose: 100.0 mg/kg/injection, schedule: Q01DX009 (ip), vehicle: Klucel (hydroxypropylcellulose) (HPC)) was 8 of 10 and 10 of 10.

Reference: PubChem BioAssay AID192 (DTP/NCI, 2004)
